Assay results: paper PMC4860958

Molecular target: T1, HA-tagged Yorkie (Yki) (Drosophila) (UniProt Q45VV3)
T1 sequence: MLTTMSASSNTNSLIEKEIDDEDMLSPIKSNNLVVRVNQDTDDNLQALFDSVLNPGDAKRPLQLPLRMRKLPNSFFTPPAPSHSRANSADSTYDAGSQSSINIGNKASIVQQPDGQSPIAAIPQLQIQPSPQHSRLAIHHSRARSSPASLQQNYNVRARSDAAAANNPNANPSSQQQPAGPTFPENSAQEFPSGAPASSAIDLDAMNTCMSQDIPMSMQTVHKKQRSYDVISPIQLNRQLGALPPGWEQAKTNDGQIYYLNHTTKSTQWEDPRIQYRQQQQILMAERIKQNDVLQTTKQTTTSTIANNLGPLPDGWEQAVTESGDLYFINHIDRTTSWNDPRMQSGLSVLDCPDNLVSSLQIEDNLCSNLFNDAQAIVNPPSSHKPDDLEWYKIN
Test: co-IP; S2 cells transfected with the indicated Tai and Yki constructs, harvested 48 h after transfection; immunoprecipitation and western blot with the indicated antibodies

Taiman (Tai), full length (Drosophila)
binding: binds

These are yes or no findings as the source states them, for the method shown. Binding seen in cells or lysates may run through a third protein. A result given as binding can be weak or reduced; the word gives no strength. Sequences can lack the tags named with a protein.
